Numbering of substitutions follows the chain as printed. Results are given in words; binding and its absence hold for the method and conditions named. For part of these data: In cells and extracts the contact can be indirect. Some entries that bind do so weakly or less than the wild type. For part of these data: Tags and fused reporters may be left off the sequences shown.

Protein sequences, listed by entry. Tags and fused reporters are not part of them. Lines headed by an entry give the natural chain unless they say otherwise; changes in a name come on top.
UniProt P04608: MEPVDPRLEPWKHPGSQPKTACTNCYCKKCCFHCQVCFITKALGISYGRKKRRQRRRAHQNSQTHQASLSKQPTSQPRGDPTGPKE
UniProt O60563: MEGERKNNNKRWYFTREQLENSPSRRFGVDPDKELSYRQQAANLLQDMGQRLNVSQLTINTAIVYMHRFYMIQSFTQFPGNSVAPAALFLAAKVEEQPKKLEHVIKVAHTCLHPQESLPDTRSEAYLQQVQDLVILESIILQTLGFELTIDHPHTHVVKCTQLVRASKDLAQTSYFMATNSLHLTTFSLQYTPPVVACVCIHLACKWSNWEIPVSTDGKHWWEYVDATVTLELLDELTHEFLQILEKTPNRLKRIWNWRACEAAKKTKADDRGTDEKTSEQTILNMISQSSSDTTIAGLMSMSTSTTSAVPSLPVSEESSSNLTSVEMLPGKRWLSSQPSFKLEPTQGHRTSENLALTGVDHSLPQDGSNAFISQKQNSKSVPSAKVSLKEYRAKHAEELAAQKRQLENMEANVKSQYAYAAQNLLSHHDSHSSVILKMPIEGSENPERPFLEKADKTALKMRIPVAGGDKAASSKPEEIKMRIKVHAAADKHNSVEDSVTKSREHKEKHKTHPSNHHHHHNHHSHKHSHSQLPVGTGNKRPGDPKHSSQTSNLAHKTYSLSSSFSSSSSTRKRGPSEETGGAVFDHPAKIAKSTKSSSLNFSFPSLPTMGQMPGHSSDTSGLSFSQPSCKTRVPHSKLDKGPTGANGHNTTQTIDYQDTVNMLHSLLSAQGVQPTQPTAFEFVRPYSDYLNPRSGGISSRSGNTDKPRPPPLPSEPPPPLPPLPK

In assay [1] the target is T1, TRAF6 TRAFC (residues 346 to 504) fused to maltose-binding protein (UniProt Q9Y4K3).
T1 sequence: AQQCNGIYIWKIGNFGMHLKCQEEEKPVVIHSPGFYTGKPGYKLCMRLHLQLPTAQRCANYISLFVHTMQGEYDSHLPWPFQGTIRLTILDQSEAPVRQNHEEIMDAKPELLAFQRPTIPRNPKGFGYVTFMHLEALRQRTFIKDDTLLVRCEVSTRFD
The assay is described as follows: pull-down; in vitro pull-down, Tat truncations fused to GST and TRAF6 C-terminal truncations fused to MBP (fig. S2A); taken as MBP-TRAF6 held, since the reciprocal assay is said to use it as prey; both purified.

Assay [2] has as its target TRAF6 C366A (UniProt Q9Y4K3). The assay is described as follows: co-IP; transfected HEK293T cells, Strep-tagged Tat and Flag-tagged TRAF6 or TRAF6 mutants, 48 h; which tag was precipitated is not told (Fig. 3C, fig. S5B, fig. S5C, fig. S6B).
Assay [3] concerns the target TRAF6 C403A (UniProt Q9Y4K3). The assay is described as above.
The target of assay [4] is T2, TRAF6 F471A (UniProt Q9Y4K3).
T2 sequence: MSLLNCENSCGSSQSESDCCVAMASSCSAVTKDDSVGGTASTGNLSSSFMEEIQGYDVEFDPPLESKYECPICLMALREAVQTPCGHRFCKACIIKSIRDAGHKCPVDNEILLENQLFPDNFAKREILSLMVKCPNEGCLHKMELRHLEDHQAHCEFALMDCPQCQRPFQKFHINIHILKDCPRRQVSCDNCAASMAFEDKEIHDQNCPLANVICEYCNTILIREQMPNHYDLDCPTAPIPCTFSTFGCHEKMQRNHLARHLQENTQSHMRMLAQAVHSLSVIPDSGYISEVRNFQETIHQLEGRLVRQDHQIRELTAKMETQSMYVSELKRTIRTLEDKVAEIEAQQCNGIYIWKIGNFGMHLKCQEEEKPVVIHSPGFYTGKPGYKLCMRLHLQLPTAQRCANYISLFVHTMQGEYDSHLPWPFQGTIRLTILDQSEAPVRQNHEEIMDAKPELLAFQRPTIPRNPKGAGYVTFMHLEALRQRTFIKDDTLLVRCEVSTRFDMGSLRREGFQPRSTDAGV
Described as above.

Assay [5] concerns the target TRAF6 F471A/Y473A (UniProt Q9Y4K3). Described as above.
Assay [6] has as its target TRAF6 L77A, Flag-tagged (UniProt Q9Y4K3). The description is as above.
The target of assay [7] is TRAF6 Q82A, Flag-tagged (UniProt Q9Y4K3). The assay is described as above.
The target in assay [8] is T3, TRAF6 Y473A (UniProt Q9Y4K3).
T3 sequence: T2 sequence with A471F, Y473A
The assay is described as above.

Assay [9] addresses T4, TRAF2, Flag-tagged (UniProt Q12933).
T4 sequence: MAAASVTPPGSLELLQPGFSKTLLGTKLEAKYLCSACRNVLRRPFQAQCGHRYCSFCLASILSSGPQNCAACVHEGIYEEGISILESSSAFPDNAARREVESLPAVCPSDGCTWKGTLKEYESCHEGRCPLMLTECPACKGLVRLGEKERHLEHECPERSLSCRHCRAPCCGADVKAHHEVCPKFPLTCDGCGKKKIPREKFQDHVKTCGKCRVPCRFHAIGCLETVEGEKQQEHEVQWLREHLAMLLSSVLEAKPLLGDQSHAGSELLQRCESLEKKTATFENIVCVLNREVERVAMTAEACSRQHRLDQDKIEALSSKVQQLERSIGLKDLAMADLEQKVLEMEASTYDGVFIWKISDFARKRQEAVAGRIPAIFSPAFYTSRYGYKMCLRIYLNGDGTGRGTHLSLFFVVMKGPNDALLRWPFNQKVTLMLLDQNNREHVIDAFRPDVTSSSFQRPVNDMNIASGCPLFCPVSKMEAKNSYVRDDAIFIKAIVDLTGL
The assay is described as follows: co-IP; HEK293T (Fig. 2C) or HEK293 (Fig. 4E) cells transfected 48 h with Tat-Strep and Flag-tagged TRAF proteins; precipitation with anti-Flag, blots with anti-Flag or anti-Strep; one lane of Fig. 2C tests dependence on RNA.

Assay [10] concerns the target HIV-1 HXB2 Tat, Strep-tagged (HIV-1 (HXB2)) (UniProt P04608). The assay is described as follows: co-IP; HEK293T cells, association of CycT1 or Cdk9 with HIV-1 Tat upon transient transfection with TRAF6, TRAF2, TRAF3 or vector (Fig. 5A).
The target is the same in assay [11]. The assay is described as follows: co-IP; HEK293T cells, association of TRAF6 and HIV-1 Tat upon transient transfection with CycT1 and Cdk9 (Fig. 5B).

With “HIV-1 HXB2 Tat residues 1 to 20 fused to GST (from UniProt P04608 1-20) (domain or fragment)”, the binding result in assay [1] was “no binding”.

For the substance “HIV-1 HXB2 Tat residues 1 to 72 fused to GST (from UniProt P04608 1-72) (domain or fragment)”, the binding result in [1] is recorded as “binds weakly”.

“HIV-1 HXB2 Tat, Strep-tagged (from UniProt P04608 1-86)”: the binding result in [2], in assay [3], in [4], in assay [5], in assay [6] and in assay [7] was “binds” throughout. Besides, the binding result in assay [8] is recorded as “binds”; in assay [9], “no binding”.

On to “P-TEFb (CycT1 and Cdk9) found with Tat in HEK293T cells (from UniProt O60563 1-726; P50750 1-372) (complex)”, for which, in [10], the binding entry was “binds”.

“P-TEFb (CycT1 and Cdk9), overexpressed (from UniProt O60563 1-726; P50750 1-372) (complex)”: in assay [11], the binding result is “binds”.

For the origin of these results see publication PMC10798561.
